No signal at the amounts used counts as a negative.
Key:
[1] = biological target: von Willebrand factor (VWF) in citrated plasma / whole blood (Homo sapiens) (UniProt P04275); experiment: inhibition of the protein; conditions: all residues 2'-OMe in both strands, 3' idT on both strands, protein details: endogenous plasma VWF, dose not given here
[2] = biological target: von Willebrand factor (VWF) in plasma (Macaca fascicularis) (UniProt A0A2K5X4G5); experiment: inhibition of the protein; conditions: in vivo, protein in an extract, protein details: endogenous cynomolgus monkey plasma VWF

Protein sequences, listed by entry. Tags and fused reporters are not part of them.
UniProt A0A2K5X4G5, entry or part of it: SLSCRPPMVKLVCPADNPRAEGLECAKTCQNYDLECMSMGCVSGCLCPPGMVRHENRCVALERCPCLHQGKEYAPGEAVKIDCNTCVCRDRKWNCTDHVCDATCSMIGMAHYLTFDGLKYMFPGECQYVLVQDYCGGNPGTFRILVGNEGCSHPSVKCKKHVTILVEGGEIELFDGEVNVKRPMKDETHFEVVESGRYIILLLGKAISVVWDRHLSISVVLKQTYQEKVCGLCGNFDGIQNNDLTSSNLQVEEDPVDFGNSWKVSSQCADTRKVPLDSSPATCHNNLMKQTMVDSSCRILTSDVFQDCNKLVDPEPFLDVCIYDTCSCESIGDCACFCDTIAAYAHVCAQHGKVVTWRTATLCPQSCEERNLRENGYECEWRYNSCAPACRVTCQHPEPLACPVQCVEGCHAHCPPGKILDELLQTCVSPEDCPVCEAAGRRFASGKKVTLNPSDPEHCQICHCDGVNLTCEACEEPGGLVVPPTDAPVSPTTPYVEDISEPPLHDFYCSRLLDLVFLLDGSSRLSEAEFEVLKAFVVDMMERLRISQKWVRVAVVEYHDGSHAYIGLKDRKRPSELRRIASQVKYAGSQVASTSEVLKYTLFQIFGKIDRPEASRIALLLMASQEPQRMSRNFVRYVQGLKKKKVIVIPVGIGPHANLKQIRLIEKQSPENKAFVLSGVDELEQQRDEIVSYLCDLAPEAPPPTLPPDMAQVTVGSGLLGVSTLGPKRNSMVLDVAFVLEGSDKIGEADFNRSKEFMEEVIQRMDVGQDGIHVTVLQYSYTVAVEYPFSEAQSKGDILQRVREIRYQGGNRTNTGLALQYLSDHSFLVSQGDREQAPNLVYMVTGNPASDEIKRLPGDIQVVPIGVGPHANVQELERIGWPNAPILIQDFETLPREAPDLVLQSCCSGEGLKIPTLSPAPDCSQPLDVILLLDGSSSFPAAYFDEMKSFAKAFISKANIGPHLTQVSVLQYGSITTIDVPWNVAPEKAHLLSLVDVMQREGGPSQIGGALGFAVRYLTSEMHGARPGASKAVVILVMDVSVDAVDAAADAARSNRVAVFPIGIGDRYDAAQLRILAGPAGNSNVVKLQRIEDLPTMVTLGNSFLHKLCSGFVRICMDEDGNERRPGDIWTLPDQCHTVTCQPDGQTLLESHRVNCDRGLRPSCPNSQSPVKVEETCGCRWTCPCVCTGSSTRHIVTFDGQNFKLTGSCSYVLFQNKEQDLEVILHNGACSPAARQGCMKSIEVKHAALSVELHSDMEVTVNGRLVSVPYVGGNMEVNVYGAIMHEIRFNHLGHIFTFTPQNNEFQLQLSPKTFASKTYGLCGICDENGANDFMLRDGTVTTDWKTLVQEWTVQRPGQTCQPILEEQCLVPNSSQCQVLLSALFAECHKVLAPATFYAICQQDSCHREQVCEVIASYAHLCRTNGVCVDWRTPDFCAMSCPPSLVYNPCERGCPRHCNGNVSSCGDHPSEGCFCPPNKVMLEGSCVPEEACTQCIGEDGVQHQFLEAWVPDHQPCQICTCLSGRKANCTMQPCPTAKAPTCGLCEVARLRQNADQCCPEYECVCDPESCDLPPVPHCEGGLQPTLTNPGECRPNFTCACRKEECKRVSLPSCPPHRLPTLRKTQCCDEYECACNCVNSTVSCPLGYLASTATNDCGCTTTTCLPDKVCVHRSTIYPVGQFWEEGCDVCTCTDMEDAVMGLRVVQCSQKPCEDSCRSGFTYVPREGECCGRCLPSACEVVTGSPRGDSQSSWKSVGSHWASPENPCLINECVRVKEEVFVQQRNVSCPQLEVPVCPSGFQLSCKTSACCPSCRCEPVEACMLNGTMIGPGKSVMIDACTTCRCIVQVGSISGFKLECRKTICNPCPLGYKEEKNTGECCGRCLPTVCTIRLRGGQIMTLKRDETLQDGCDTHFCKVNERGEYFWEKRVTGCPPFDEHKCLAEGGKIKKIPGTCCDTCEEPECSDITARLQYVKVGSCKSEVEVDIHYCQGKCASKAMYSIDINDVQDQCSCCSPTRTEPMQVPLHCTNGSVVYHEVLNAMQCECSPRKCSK

## GCCAGGGACCUAAGACACAUGUCCCUGGC / ACAUGUGUCUUAGGUCCCUGGCT [BT100/BT101 duplex]
[1]; BT100 5' NH2, BT101 reverses BT100 inhibition completely at 1:1, PFA CADP-CT, protein in an …, variant of BT100
  functional effect of the aptamer: not active

## GCCAGGGACCUAAGACACAUGUCCCUGGC / ACAUGUGUCUUAGGUCCCUGGCT [BT200/BT101 duplex]
[1]; BT200 5' PEG40K-NH, REAADS VWF:Act, complete reversal of inhibition at 1:1 BT101, no further increase at 2:1, protein in an extract, variant of BT200
  functional effect of the aptamer: not active
[2]; all residues 2'-OMe in both strands, BT200 5' PEG40K-NH, 3' idT on both strands, VWF activity returned to baseline within 5 min of i.v. BT101 (1, 3 or 10 mg/kg), variant of BT200
  functional effect of the aptamer: not active

## GCCAGGGACCUAAGACACAUGUCCCUGGC [BT200]
[2]; all residues 2'-OMe, 5' PEG40K-NH, 3' idT (final t of SEQ 6), 24 h after 0.6 mg/kg s.c. BT200, baseline 137.4%, REAADS assay
  functional effect of the aptamer: active
